# In PubChem BioAssay AID188 (DTP/NCI, 2004):
# The mice bore no tumour; each value counts animals alive of those treated. Counts of survivors are from the toxicity check (mostly the fifth day) where no day follows; animals may have died later. Schedules are NCI's codes, read here as Q, the interval in days (D) or hours (H), X, the number of doses.
# System: CD2F1 mice, nontumored, toxicity/survival
# Test: NCI In Vivo Anticancer Drug Screen. Data for tumor model Nontumored Animals (Toxicity Test) in CD2F1 (CDF1) mice
SMILES,"survivor count (dose: 328.0 mg/kg/injection, schedule: Q01DX001 (ip), vehicle: saline with Tween-80)","survivor count (dose: 410.0 mg/kg/injection, schedule: Q01DX001 (ip), vehicle: saline with Tween-80)","survivor count (dose: 512.0 mg/kg/injection, schedule: Q01DX001 (ip), vehicle: saline with Tween-80)","survivor count (dose: 640.0 mg/kg/injection, schedule: Q01DX001 (ip), vehicle: saline with Tween-80)","survivor count (dose: 800.0 mg/kg/injection, schedule: Q01DX001 (ip), vehicle: saline with Tween-80)","survivor count (dose: 1000.0 mg/kg/injection, schedule: Q01DX001 (ip), vehicle: saline with Tween-80)","survivor count (dose: 118.0 mg/kg/injection, schedule: Q01DX009 (ip), vehicle: Klucel (hydroxypropylcellulose) (HPC))","survivor count (dose: 177.0 mg/kg/injection, schedule: Q01DX009 (ip), vehicle: Klucel (hydroxypropylcellulose) (HPC))","survivor count (dose: 266.0 mg/kg/injection, schedule: Q01DX009 (ip), vehicle: Klucel (hydroxypropylcellulose) (HPC))","survivor count (dose: 400.0 mg/kg/injection, schedule: Q01DX009 (ip), vehicle: Klucel (hydroxypropylcellulose) (HPC))","survivor count (dose: 600.0 mg/kg/injection, schedule: Q01DX009 (ip), vehicle: Klucel (hydroxypropylcellulose) (HPC))"
N#Cc1ccc([N+](=O)[O-])n1CCO,3 of 3,2 of 3,1 of 3,0 of 3,0 of 3,0 of 3,–,–,–,–,–
CN(C)N=Nc1ccc(C#N)cc1,–,–,–,–,–,–,10 of 10,9 of 10,1 of 10,0 of 10,0 of 10
